# Experimental data as given in the supplement of paper PMC12819154, “High-throughput peptide-centric local stability assay extends protein–ligand identification to membrane proteins, tissues and bacteria” (Nature Structural & Molecular Biology, 2025).
# Amino acid sequences for entries named in this document (tags omitted).
# UniProt Q92736, whole entry: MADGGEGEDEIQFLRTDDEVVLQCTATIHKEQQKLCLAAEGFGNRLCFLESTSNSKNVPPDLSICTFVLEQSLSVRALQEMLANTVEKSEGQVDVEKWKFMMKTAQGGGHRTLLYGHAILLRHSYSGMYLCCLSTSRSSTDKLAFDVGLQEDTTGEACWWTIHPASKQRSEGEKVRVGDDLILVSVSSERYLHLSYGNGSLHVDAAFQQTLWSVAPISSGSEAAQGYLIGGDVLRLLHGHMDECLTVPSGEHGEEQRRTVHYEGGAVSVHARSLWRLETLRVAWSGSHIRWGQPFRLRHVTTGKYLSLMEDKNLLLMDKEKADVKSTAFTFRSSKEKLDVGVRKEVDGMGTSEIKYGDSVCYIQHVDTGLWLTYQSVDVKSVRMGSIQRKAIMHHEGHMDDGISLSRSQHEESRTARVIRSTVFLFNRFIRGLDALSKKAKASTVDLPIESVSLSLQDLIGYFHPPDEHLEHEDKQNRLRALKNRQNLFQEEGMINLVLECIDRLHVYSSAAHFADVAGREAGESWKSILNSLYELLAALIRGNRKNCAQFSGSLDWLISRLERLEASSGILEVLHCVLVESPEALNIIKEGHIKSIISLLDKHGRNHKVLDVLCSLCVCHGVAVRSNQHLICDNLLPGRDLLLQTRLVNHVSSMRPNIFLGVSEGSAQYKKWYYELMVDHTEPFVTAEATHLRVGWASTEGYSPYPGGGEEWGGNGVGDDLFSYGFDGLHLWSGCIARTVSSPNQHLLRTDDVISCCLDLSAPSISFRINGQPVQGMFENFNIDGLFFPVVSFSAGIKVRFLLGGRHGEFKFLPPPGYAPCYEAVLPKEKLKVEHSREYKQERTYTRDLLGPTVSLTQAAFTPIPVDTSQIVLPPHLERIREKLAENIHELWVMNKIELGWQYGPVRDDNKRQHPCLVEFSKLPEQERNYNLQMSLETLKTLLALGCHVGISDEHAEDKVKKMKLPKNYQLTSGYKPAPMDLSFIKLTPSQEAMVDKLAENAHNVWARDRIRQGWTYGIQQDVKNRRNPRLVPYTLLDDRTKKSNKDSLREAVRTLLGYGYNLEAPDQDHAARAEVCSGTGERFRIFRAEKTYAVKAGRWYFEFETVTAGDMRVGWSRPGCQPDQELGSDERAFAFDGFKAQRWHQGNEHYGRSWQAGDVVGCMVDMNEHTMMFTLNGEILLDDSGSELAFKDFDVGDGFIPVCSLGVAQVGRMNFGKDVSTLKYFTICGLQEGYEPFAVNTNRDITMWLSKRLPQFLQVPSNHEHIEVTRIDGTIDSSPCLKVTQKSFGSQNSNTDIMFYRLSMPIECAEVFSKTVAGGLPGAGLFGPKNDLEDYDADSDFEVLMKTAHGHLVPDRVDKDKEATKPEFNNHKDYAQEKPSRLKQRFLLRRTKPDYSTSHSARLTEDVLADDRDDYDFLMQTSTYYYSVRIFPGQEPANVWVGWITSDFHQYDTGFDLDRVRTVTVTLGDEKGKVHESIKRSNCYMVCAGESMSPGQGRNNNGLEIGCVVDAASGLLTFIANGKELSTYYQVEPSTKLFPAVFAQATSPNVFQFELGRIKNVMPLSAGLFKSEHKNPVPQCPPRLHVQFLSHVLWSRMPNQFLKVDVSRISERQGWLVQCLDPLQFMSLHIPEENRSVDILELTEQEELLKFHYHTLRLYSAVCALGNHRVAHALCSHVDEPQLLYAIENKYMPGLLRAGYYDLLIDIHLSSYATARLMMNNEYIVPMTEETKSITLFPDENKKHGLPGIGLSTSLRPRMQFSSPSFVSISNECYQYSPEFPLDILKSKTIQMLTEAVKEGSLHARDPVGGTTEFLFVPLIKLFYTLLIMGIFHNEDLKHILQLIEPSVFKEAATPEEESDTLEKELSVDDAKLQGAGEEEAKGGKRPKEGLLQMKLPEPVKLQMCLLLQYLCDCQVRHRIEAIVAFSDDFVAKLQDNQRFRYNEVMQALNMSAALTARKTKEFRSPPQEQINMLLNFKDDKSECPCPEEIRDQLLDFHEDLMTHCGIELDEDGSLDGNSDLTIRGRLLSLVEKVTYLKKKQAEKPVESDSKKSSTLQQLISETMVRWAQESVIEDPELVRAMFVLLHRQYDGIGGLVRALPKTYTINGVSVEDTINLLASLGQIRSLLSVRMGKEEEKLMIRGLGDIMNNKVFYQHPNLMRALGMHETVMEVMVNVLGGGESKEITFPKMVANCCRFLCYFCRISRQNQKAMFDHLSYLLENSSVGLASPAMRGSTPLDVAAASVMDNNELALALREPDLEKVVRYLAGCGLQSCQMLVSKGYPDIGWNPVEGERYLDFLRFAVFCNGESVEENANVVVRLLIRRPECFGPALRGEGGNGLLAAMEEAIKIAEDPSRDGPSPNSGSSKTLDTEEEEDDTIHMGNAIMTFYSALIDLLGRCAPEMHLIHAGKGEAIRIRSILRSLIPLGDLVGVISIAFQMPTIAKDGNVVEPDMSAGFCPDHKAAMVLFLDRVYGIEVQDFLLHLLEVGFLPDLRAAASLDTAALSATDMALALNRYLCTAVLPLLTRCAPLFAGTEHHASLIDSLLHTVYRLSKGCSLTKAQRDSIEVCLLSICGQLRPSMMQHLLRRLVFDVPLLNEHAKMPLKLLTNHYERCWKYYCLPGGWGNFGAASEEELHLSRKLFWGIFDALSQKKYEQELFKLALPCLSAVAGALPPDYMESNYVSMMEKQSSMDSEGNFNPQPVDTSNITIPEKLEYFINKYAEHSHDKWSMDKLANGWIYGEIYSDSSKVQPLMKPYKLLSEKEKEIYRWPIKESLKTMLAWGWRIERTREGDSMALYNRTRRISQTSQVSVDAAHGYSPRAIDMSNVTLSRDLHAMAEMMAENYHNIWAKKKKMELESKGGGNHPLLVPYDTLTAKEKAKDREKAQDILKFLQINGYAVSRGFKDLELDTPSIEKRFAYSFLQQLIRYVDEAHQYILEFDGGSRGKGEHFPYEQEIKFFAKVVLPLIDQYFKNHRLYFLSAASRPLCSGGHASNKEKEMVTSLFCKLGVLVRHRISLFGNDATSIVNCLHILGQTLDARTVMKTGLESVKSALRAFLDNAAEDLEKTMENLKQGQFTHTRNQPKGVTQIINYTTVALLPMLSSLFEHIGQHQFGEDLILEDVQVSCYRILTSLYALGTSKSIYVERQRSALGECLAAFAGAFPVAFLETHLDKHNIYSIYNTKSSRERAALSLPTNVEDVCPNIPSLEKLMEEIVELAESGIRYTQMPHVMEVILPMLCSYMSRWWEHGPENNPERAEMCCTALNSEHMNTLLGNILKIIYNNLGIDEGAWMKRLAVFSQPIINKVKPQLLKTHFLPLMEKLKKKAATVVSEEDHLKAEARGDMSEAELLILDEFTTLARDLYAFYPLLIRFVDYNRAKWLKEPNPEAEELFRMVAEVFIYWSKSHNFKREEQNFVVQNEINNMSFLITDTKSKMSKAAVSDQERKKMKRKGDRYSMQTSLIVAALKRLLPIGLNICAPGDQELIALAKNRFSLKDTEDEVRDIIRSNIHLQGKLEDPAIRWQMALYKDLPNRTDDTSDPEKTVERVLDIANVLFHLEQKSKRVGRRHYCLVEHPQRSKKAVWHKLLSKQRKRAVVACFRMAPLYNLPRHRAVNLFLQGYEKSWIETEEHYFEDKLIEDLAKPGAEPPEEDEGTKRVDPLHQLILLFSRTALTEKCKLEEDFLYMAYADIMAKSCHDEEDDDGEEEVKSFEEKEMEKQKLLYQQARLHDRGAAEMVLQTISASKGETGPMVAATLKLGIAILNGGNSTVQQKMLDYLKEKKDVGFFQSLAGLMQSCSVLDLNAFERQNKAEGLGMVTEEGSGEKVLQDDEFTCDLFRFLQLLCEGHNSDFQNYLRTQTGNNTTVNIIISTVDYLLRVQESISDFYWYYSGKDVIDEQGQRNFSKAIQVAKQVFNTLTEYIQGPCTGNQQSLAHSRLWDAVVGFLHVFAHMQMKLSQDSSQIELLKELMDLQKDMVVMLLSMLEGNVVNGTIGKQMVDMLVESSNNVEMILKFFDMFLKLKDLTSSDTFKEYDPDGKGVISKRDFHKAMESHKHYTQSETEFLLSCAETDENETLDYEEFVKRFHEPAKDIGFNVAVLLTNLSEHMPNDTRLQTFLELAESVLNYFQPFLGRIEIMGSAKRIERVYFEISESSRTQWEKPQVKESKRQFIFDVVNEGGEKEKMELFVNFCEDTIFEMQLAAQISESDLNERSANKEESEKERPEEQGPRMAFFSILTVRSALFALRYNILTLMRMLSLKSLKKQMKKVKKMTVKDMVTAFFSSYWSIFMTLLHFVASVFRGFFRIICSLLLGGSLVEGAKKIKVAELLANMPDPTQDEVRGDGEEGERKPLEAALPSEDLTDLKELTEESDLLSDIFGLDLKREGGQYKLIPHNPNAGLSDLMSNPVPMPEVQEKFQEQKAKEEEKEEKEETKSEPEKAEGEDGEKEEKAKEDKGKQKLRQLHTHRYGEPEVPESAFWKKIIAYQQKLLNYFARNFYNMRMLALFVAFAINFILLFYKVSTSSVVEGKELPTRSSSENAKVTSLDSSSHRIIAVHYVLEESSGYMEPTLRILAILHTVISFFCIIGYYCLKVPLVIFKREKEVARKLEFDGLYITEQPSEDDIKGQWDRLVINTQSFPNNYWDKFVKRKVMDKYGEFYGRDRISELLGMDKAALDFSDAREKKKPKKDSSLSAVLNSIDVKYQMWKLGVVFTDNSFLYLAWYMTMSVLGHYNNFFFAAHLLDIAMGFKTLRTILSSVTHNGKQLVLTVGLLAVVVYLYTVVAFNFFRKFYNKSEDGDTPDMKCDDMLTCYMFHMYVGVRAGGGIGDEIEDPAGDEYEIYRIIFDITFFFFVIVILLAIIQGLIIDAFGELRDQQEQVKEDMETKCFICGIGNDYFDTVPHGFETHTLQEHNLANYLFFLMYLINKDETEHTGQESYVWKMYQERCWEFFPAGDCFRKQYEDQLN
# Some of the results follow. Small differences around the control level are noise.
# Molecular target: UniProt Q92736
# Assay: log2 fold change of tryptic peptide abundance, ligand vs vehicle (limited proteolysis) (log2 ratio); higher = more trypsin-susceptible (destabilized)
# Conditions: peptide sequence: KKMELESK; peptide start residue: 2856; ligand concentration: 5 uM; sample: K562 cleared lysate
compound,measurement,value
Cc1nc(Nc2ncc(C(=O)Nc3c(C)cccc3Cl)s2)cc(N2CCN(CCO)CC2)n1 [dasatinib],log2 fold change,0.0429
